The nature of the data set: general procedure: solution-phase peptide synthesis; N,N'-dicyclohexylcarbodiimide with 4-dimethylaminopyridine (ester-linked example). To be noted: hydrochloride; for conjugation yield: conjugation step; for step yield: late stage modification step.

On to “7-Ethyl-10-[3'-(t-butoxycarbonyl-glycyl-glycyl-glycyl-glycylamino)propyloxy]-(20S)-camptothecin”, for which the conjugation yield worked out at 84%. Still for that read-out and setting: next, “7-ethyl-10-{2'-[2"-(t-butoxycarbonyl-glycyl-glycyl-L-phenylalanyl-glycylamino)ethyloxy]ethyloxy}-(20S)-camptothecin”: 79%. On to “7-ethyl-10-[3'-(glycyl-glycyl-L-phenylalanyl-glycyloxy)-propyloxy]-(20S)-camptothecin hydrochloride”, for which the step yield came out at 72%.

In turn, “7-ethyl-10-[3'-(glycyl-glycyl-glycyl-glycylamino)propyloxy]-(20S)-camptothecin hydrochloride” displayed a step yield of 99%. With “10-[3'-(glycyl-glycyl-L-phenylalanyl-glycylamino)propyloxy]-7-ethyl-(20S)- camptothecin hydrochloride”, the step yield turned out to be 88%. As for “10-[3'-(t-butoxycarbonyl-glycyl-glycyl-L-phenylalanyl-glycylamino)propyloxy]-7-ethyl-(20S)-camptothecin”, the conjugation yield is given as 62%. On the same count and under the same terms, next, “7-ethyl-10-[3'-(t-butoxycarbonyl-glycyl-glycyl-L-phenylalanyl-glycyloxy)propyloxy]-(20S)-camptothecin”: 74%. With “7-ethyl-10-{2'-[2"-(glycyl-glycyl-L-phenylalanyl-glycyl-amino)ethyloxy]ethyloxy}-(20S)-camptothecin hydrochloride”, the step yield turned out to be 65%.

Source of the values: patent US5837673 (dated 1998).
